Experimental data taken from US6495065B1, “Nitrosamine-inhibiting compositions for shortstopping of free radical emulsion polymerizations” (Atofina Chemicals, Inc., priority 1999, dated 2002).

Legend:
[1] = Nitrosamines in SBR latex (unreacted monomers removed), gas chromatography with thermal energy analyzer
[2] = Nitrosamines in SBR rubber (coagulated, dried, rolled), gas chromatography with thermal energy analyzer; conditions: Table 1; shortstopper 400 ppm NiPHA; inhibitor 1000 ppm in NiPHA (~400 ppb in latex)
[3] = Table 2, shortstopper 350 ppm DEHA, inhibitor 1250 ppm in shortstopper (~450 ppb in latex), DEA ~450 ppb

SMILES	Nitrosamine in latex ([1]; Table 1, shortstopper 400 ppm NiPHA, inhibitor 1000 ppm in NiPHA (0 for NiPHA alone), ND = none detected, limit of detection 1 ppb)	Nitrosamine in latex: NDEA (N-nitrosodiethylamine) [1, 3]	Nitrosamine in latex: NDMA [1, 3]	Nitrosamine in rubber: NDBA (N-nitrosodibutylamine) [2]
CC(C)NO [NiPHA, N-isopropylhydroxylamine, reference compound]	does not yield nitrosamines	–	–	–
CCN [MEA, monoethylamine]	–	2 ppb	1 ppb	4 ppb
